Measured values as given in publication PMC6155776, “Synthesis of Novel Pyrazinamide Derivatives Based on 3-Chloropyrazine-2-carboxamide and Their Antimicrobial Evaluation” (Molecules : A Journal of Synthetic Chemistry and Natural …, 2017).

Test system: HepG2 cell line

| Structure (SMILES) | SI (IC50/MIC) |
| --- | --- |
| NC(=O)c1nccnc1NCc1cccc(C(F)(F)F)c1 [Compound 4, 3-[(3-Trifluoromethylbenzyl)amino]pyrazine-2-carboxamide] | 1.8 |
| NC(=O)c1nccnc1NCc1ccc(C(F)(F)F)cc1 [Compound 12, 3-[(4-Trifluoromethylbenzyl)amino]pyrazine-2-carboxamide] | 1.4 |
